PubChem BioAssay AID602196 – INSERM, 2012
Here is an unselected part of about 23,000 reagents. In the full data, 455 (2%) got an active call. 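Active includes both protection and sensitisation; some change values fall well beyond the stated -50 to +50 range.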 Unmarked entries are inactive. Further read-outs or replicates are left out here. Not given: the amount of reagent.

Screen: 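Modifiers of cisplatin sensitivity in A549 cells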
Cells: human A549 lung cancer cells
Reagent: siRNA pair against human genes
Timing: 48 h transfection before cisplatin; time from cisplatin to read-out not stated
Conditions: cisplatin at a dose killing half of control-siRNA cells; exact dose and duration not given
Measured: 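Cisplatin cell death as a shift from the 50% death seen with control siRNA; siRNAs toxic or growth-blocking alone scored 0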
Scale: two-siRNA summed score (-2 to +2): higher = both siRNAs protect from cisplatin killing; -2 means both sensitise
Call rule: 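siRNAs harmful alone (LDH or WST-1) get 0; others get +1 for less and -1 for more cisplatin killing; genes are active when the two siRNAs give the same sign, summing to ±2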
Meaning of the calls: active = both siRNAs shift cisplatin killing the same way; inactive = no consistent shift, or siRNA harmful alone

TOX3 showed two-siRNA summed score (-2 to +2) = 0. LOC389533 scored two-siRNA summed score (-2 to +2) = -1. LOC343495 gave two-siRNA summed score (-2 to +2) = 2 (active). Silencing of WDR62 resulted in: two-siRNA summed score (-2 to +2) = 0. ABHD17B scored two-siRNA summed score (-2 to +2) = 0. Silencing of ACADL came out at: two-siRNA summed score (-2 to +2) = 0.

MRPS15 showed two-siRNA summed score (-2 to +2) = 0. Silencing of SEMA3A resulted in: two-siRNA summed score (-2 to +2) = 1. ARB2A showed two-siRNA summed score (-2 to +2) = 0. MGC22014 gave two-siRNA summed score (-2 to +2) = 1. After knock-down of TCF4 the results were two-siRNA summed score (-2 to +2) = 0. Silencing of XIRP1 came out at: two-siRNA summed score (-2 to +2) = 0.

For ZNF184, the values are two-siRNA summed score (-2 to +2) = 0. Silencing of HBEGF came out at: two-siRNA summed score (-2 to +2) = 0. After knock-down of SDHAP2 the results were two-siRNA summed score (-2 to +2) = 1. With knock-down of ECM2, the screen gave two-siRNA summed score (-2 to +2) = -1. After knock-down of LOC440635, the screen gave two-siRNA summed score (-2 to +2) = 0. After knock-down of LOC440714, the screen gave two-siRNA summed score (-2 to +2) = -1.

ARG1 gave two-siRNA summed score (-2 to +2) = 0. For DUSP23, the entry reads two-siRNA summed score (-2 to +2) = -1. GATB scored two-siRNA summed score (-2 to +2) = 0. LOC440384 showed two-siRNA summed score (-2 to +2) = 1. KBTBD6 showed two-siRNA summed score (-2 to +2) = 0. After knock-down of KBTBD11 the results were two-siRNA summed score (-2 to +2) = 1.

CTSC showed two-siRNA summed score (-2 to +2) = 0. Silencing of TWF1 came out at: two-siRNA summed score (-2 to +2) = 0.

Targets above whose gene name starts with M or m:
MRPS15 — two-siRNA summed score (-2 to +2) = 0
MGC22014 — two-siRNA summed score (-2 to +2) = 1

Further results follow.
After knock-down of LOC389116 the results were two-siRNA summed score (-2 to +2) = 0. Against ZNF91, the values are two-siRNA summed score (-2 to +2) = 1. With knock-down of DAB2, the screen gave two-siRNA summed score (-2 to +2) = 0. After knock-down of CA14, the screen gave two-siRNA summed score (-2 to +2) = 0. Against LINC00550, the values are two-siRNA summed score (-2 to +2) = 1. Silencing of UBE2A resulted in: two-siRNA summed score (-2 to +2) = 0.

Against ZNF415 the deposit lists two-siRNA summed score (-2 to +2) = 0. OGT scored two-siRNA summed score (-2 to +2) = 0. Against C18orf54, the entry reads two-siRNA summed score (-2 to +2) = 0. LINC01102 scored two-siRNA summed score (-2 to +2) = 0. Depletion of LOC400523 gave: two-siRNA summed score (-2 to +2) = 0. SYTL5 showed two-siRNA summed score (-2 to +2) = 0.

With knock-down of OR6B2, the record shows two-siRNA summed score (-2 to +2) = 0. Against EMX2 the deposit lists two-siRNA summed score (-2 to +2) = 0.
